Measurements reported in PubChem BioAssay AID686943 (Drosophila RNAi Screening Center, 2013)
The screen tested about 23,000 reagents; below is an unselected part of those with a known target gene and a result. 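Extra replicates exist only for a retested subset of genes; insulin dose and duration not given; both raised and lowered dpERK matter.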 Names joined by + are all predicted targets of the reagent. Not all columns of the deposit are shown. Not given: the amount of reagent, the time to read-out.

Test: 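Fly genes whose loss alters ERK activation after insulin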 (primary screen)
Cells: Drosophila S2R+ haemocyte-like cells expressing YFP-tagged ERK (Rolled)
Reagent: long dsRNA against Drosophila genes
Challenge: insulin stimulation versus unstimulated cells; dose and duration not given
Measured: 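Antibody staining for doubly phosphorylated ERK divided by ERK-YFP signal, as plate z-scores, in insulin-treated and untreated cells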
Reading the numbers: replicate 1, z-score of dpERK with insulin and replicate 2, z-score of dpERK with insulin: higher = more active ERK per ERK-YFP after insulin

ACXD (GeneID 38284) [DRSC07843] | replicate 1, z-score of dpERK with insulin = -0.14; replicate 2, z-score of dpERK with insulin = 1.06
CG5895 (GeneID 39752) [DRSC10554] | replicate 1, z-score of dpERK with insulin = 1.07; replicate 2, z-score of dpERK with insulin = -0.07
pros (GeneID 41363) [DRSC12856] | replicate 1, z-score of dpERK with insulin = -0.2; replicate 2, z-score of dpERK with insulin = -0.22
pros (GeneID 41363) [DRSC17032] | replicate 1, z-score of dpERK with insulin = 0.59; replicate 2, z-score of dpERK with insulin = -0.29
pros (GeneID 41363) [DRSC22612] | replicate 1, z-score of dpERK with insulin = -0.26; replicate 2, z-score of dpERK with insulin = -0.36
CG7298 (GeneID 40210) [DRSC10802] | replicate 1, z-score of dpERK with insulin = -0.78; replicate 2, z-score of dpERK with insulin = -0.17
CG17065 (GeneID 33026) [DRSC20544] | replicate 1, z-score of dpERK with insulin = 0.99; replicate 2, z-score of dpERK with insulin = 0.28
E(spl)malpha-BFM (GeneID 43153) [DRSC16994] | replicate 1, z-score of dpERK with insulin = -1.31; replicate 2, z-score of dpERK with insulin = -0.15
CG31816 (GeneID 318960) [DRSC01547] | replicate 1, z-score of dpERK with insulin = -1.85; replicate 2, z-score of dpERK with insulin = -1.29
Phm (GeneID 37823) [DRSC04639] | replicate 1, z-score of dpERK with insulin = 0.82; replicate 2, z-score of dpERK with insulin = -0.21
jeb (GeneID 36295) [DRSC06305] | replicate 1, z-score of dpERK with insulin = -0.64; replicate 2, z-score of dpERK with insulin = -0.46
jeb (GeneID 36295) [DRSC06307] | replicate 1, z-score of dpERK with insulin = 0.04; replicate 2, z-score of dpERK with insulin = -0.44
CG31917 + Tfb5 [DRSC02362] | replicate 1, z-score of dpERK with insulin = 0.22; replicate 2, z-score of dpERK with insulin = 0.3
CG31917 + Tfb5 [DRSC02363] | replicate 1, z-score of dpERK with insulin = 1.59; replicate 2, z-score of dpERK with insulin = -0.62
disp (GeneID 44274) [DRSC12376] | replicate 1, z-score of dpERK with insulin = 1.42; replicate 2, z-score of dpERK with insulin = -0.45
RabGGTa (GeneID 40617) [DRSC12189] | replicate 1, z-score of dpERK with insulin = -0.01; replicate 2, z-score of dpERK with insulin = -0.67
dpr2 (GeneID 3346227) [DRSC02370] | replicate 1, z-score of dpERK with insulin = -0.06; replicate 2, z-score of dpERK with insulin = 0.35
dpr2 (GeneID 3346227) [DRSC02371] | replicate 1, z-score of dpERK with insulin = 0.54; replicate 2, z-score of dpERK with insulin = 0.09
Cpr47Ee (GeneID 36193) [DRSC06343] | replicate 1, z-score of dpERK with insulin = -2.8; replicate 2, z-score of dpERK with insulin = -3.78
CG32487 (GeneID 38358) [DRSC21745] | replicate 1, z-score of dpERK with insulin = 0; replicate 2, z-score of dpERK with insulin = 0.01
ste24c + CR30461 (retired record) [DRSC05639] | replicate 1, z-score of dpERK with insulin = -0.06; replicate 2, z-score of dpERK with insulin = 0.41
ste24c + CR30461 (retired record) [DRSC07316] | replicate 1, z-score of dpERK with insulin = -0.28; replicate 2, z-score of dpERK with insulin = 0.69
dac (GeneID 34982) [DRSC03518] | replicate 1, z-score of dpERK with insulin = 0.97; replicate 2, z-score of dpERK with insulin = 0.07
CG10352 (GeneID 32147) [DRSC19353] | replicate 1, z-score of dpERK with insulin = 0.15; replicate 2, z-score of dpERK with insulin = -0.17
nudC (GeneID 39879) [DRSC11096] | replicate 1, z-score of dpERK with insulin = 0.5; replicate 2, z-score of dpERK with insulin = 0.41
nudC (GeneID 39879) [DRSC11097] | replicate 1, z-score of dpERK with insulin = 0.93; replicate 2, z-score of dpERK with insulin = 1.86
dgt2 (GeneID 34610) [DRSC02548] | replicate 1, z-score of dpERK with insulin = 0.16; replicate 2, z-score of dpERK with insulin = 0.14
Cpr49Ah (GeneID 36354) [DRSC07204] | replicate 1, z-score of dpERK with insulin = -0.35; replicate 2, z-score of dpERK with insulin = 1.01
CG5196 (GeneID 41522) [DRSC15735] | replicate 1, z-score of dpERK with insulin = 0.24; replicate 2, z-score of dpERK with insulin = 0.34
Ets98B (GeneID 43334) [DRSC16666] | replicate 1, z-score of dpERK with insulin = 1.03; replicate 2, z-score of dpERK with insulin = -0.09
CycD (GeneID 32551) [DRSC20233] | replicate 1, z-score of dpERK with insulin = -4.06; replicate 2, z-score of dpERK with insulin = -3.11
Cdk5 (GeneID 36727) [DRSC07359] | replicate 1, z-score of dpERK with insulin = 0.95; replicate 2, z-score of dpERK with insulin = 0.75
ValRS-m (GeneID 39023) [DRSC10535] | replicate 1, z-score of dpERK with insulin = -0.46; replicate 2, z-score of dpERK with insulin = -0.31
SdhA (GeneID 37228) [DRSC07547] | replicate 1, z-score of dpERK with insulin = 0.46; replicate 2, z-score of dpERK with insulin = 0.1
Nep4 (GeneID 42449) [DRSC15539] | replicate 1, z-score of dpERK with insulin = 0.67; replicate 2, z-score of dpERK with insulin = 0.05
mRpL19 (GeneID 41028) [DRSC16367] | replicate 1, z-score of dpERK with insulin = 0.57; replicate 2, z-score of dpERK with insulin = 0.52
mRpL19 (GeneID 41028) [DRSC21618] | replicate 1, z-score of dpERK with insulin = 0.52; replicate 2, z-score of dpERK with insulin = 0.58
rod (GeneID 43719) [DRSC17047] | replicate 1, z-score of dpERK with insulin = 1.11; replicate 2, z-score of dpERK with insulin = 0
png (GeneID 31084) [DRSC18582] | replicate 1, z-score of dpERK with insulin = -0.9; replicate 2, z-score of dpERK with insulin = 0.76
CG42812 (GeneID 50072) [DRSC15368] | replicate 1, z-score of dpERK with insulin = 0.62; replicate 2, z-score of dpERK with insulin = -0.2
